# Assay results: the supplement of paper PMC7666118
# The chains behind the UniProt entries cited, without tags or fusion partners. Where a name states a change or a piece, a line headed by the entry shows the natural chain unless it says otherwise.
# UniProt Q15181: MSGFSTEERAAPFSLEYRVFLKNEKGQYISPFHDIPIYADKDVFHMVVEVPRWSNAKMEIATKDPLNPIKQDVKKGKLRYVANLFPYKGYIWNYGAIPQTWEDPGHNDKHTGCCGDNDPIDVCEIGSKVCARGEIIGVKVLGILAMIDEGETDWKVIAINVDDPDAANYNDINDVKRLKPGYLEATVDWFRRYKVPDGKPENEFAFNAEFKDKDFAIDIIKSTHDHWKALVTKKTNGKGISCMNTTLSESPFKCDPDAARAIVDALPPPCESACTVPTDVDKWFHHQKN
# UniProt O15318: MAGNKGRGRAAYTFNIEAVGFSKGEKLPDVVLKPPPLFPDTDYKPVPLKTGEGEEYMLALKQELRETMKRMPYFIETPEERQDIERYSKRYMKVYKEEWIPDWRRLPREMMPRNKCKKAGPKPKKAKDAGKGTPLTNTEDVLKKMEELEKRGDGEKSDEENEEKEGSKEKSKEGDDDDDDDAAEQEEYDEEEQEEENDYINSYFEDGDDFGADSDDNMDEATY
# UniProt Q8WY54: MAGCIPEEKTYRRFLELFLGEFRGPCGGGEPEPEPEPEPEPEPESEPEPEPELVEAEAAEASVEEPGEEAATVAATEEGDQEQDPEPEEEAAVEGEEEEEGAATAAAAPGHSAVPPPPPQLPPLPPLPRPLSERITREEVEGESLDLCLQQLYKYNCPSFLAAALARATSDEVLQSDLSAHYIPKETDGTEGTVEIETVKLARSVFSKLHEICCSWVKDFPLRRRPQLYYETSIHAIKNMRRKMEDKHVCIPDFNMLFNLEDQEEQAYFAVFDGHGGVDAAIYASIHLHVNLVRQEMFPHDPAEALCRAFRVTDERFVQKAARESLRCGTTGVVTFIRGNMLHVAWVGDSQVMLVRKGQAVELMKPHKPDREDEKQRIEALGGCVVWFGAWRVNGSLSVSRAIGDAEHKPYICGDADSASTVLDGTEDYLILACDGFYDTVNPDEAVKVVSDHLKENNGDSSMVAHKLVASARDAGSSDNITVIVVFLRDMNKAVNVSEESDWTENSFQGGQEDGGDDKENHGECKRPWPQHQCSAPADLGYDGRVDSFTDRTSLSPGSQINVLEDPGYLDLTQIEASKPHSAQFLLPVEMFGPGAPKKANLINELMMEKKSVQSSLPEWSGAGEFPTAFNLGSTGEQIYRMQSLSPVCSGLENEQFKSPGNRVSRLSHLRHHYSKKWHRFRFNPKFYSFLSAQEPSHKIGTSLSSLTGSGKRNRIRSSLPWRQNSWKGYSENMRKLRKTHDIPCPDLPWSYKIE
# UniProt Q5H9R7: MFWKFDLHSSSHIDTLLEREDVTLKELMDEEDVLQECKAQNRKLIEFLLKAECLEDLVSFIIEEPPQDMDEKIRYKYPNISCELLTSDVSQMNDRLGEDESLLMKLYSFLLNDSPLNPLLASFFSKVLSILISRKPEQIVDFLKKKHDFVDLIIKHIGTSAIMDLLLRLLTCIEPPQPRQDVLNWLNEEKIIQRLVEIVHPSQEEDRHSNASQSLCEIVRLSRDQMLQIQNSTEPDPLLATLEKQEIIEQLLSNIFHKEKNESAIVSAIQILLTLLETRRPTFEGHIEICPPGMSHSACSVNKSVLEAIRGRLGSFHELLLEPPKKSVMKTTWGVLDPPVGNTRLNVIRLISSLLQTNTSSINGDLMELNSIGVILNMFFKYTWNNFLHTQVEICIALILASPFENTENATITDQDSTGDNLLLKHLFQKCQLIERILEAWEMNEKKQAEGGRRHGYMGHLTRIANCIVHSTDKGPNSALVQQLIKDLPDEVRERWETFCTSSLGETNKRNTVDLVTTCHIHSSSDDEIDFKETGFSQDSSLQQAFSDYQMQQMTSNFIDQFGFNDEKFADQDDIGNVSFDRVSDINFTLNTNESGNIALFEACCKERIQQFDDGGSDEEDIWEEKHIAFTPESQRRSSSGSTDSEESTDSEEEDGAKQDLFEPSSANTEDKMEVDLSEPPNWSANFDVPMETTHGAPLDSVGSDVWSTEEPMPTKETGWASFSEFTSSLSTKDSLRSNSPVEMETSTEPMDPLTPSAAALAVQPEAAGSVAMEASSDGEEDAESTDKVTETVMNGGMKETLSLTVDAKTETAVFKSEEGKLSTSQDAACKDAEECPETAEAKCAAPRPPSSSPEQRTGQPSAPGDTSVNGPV
# UniProt Q5T2R2: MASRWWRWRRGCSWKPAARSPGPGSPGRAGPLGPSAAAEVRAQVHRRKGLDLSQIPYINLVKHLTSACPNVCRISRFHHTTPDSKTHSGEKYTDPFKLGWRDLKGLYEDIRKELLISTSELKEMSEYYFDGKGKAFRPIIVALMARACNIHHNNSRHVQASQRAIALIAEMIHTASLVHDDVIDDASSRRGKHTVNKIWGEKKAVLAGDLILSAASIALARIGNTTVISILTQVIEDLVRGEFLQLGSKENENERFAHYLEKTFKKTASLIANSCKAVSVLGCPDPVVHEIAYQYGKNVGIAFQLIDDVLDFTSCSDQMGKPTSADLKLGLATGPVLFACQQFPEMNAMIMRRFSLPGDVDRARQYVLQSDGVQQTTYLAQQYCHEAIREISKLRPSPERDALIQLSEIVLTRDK
# UniProt Q8NCN5: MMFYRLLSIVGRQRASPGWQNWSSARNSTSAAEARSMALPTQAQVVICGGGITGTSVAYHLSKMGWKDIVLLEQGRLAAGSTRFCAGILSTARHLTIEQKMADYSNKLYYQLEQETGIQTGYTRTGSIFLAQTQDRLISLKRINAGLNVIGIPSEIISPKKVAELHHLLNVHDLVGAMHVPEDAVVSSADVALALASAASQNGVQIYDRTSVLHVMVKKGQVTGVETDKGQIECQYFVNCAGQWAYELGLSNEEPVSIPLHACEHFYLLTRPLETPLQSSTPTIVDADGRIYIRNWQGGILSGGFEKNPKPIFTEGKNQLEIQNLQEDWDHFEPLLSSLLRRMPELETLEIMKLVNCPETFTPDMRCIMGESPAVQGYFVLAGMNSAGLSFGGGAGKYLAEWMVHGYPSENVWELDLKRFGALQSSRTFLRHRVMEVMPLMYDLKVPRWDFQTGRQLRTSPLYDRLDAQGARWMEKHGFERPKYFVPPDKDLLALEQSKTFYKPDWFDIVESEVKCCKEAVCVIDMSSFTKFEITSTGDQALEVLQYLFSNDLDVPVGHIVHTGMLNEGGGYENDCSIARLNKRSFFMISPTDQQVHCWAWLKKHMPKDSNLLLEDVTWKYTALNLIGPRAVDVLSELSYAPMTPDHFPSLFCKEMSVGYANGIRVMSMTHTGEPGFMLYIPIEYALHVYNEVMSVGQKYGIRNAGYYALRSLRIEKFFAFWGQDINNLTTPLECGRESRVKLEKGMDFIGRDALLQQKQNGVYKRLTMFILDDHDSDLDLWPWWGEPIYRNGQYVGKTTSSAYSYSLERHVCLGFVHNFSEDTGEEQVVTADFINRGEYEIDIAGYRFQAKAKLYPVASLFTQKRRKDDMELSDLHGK
# UniProt Q16537, whole entry: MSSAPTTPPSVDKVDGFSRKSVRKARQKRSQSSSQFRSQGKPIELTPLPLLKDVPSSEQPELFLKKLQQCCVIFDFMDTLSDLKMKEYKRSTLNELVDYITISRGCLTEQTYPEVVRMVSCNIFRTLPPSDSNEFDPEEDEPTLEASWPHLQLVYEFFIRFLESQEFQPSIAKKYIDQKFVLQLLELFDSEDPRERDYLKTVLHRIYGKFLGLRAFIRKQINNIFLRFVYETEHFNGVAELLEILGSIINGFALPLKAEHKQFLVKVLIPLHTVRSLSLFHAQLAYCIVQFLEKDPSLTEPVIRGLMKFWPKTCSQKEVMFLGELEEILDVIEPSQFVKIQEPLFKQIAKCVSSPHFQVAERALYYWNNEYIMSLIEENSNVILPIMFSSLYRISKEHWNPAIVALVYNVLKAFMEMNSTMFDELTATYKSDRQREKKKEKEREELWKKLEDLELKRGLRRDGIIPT
# UniProt O15530: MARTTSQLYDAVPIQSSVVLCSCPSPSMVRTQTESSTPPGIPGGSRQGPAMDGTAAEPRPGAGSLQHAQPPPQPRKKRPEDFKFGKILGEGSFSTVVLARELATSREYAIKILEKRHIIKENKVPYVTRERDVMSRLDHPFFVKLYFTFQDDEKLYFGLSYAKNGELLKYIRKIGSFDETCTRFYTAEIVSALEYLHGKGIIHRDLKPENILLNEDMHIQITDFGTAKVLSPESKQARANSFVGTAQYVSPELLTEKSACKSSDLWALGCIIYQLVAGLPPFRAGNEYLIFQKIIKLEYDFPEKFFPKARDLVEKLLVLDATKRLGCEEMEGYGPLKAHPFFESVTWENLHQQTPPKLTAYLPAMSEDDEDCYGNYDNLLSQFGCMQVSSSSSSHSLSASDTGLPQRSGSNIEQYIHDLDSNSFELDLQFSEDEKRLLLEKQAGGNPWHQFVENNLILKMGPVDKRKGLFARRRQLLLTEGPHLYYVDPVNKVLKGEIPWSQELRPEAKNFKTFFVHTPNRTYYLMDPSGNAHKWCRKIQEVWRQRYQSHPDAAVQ
# UniProt Q9Y2I7: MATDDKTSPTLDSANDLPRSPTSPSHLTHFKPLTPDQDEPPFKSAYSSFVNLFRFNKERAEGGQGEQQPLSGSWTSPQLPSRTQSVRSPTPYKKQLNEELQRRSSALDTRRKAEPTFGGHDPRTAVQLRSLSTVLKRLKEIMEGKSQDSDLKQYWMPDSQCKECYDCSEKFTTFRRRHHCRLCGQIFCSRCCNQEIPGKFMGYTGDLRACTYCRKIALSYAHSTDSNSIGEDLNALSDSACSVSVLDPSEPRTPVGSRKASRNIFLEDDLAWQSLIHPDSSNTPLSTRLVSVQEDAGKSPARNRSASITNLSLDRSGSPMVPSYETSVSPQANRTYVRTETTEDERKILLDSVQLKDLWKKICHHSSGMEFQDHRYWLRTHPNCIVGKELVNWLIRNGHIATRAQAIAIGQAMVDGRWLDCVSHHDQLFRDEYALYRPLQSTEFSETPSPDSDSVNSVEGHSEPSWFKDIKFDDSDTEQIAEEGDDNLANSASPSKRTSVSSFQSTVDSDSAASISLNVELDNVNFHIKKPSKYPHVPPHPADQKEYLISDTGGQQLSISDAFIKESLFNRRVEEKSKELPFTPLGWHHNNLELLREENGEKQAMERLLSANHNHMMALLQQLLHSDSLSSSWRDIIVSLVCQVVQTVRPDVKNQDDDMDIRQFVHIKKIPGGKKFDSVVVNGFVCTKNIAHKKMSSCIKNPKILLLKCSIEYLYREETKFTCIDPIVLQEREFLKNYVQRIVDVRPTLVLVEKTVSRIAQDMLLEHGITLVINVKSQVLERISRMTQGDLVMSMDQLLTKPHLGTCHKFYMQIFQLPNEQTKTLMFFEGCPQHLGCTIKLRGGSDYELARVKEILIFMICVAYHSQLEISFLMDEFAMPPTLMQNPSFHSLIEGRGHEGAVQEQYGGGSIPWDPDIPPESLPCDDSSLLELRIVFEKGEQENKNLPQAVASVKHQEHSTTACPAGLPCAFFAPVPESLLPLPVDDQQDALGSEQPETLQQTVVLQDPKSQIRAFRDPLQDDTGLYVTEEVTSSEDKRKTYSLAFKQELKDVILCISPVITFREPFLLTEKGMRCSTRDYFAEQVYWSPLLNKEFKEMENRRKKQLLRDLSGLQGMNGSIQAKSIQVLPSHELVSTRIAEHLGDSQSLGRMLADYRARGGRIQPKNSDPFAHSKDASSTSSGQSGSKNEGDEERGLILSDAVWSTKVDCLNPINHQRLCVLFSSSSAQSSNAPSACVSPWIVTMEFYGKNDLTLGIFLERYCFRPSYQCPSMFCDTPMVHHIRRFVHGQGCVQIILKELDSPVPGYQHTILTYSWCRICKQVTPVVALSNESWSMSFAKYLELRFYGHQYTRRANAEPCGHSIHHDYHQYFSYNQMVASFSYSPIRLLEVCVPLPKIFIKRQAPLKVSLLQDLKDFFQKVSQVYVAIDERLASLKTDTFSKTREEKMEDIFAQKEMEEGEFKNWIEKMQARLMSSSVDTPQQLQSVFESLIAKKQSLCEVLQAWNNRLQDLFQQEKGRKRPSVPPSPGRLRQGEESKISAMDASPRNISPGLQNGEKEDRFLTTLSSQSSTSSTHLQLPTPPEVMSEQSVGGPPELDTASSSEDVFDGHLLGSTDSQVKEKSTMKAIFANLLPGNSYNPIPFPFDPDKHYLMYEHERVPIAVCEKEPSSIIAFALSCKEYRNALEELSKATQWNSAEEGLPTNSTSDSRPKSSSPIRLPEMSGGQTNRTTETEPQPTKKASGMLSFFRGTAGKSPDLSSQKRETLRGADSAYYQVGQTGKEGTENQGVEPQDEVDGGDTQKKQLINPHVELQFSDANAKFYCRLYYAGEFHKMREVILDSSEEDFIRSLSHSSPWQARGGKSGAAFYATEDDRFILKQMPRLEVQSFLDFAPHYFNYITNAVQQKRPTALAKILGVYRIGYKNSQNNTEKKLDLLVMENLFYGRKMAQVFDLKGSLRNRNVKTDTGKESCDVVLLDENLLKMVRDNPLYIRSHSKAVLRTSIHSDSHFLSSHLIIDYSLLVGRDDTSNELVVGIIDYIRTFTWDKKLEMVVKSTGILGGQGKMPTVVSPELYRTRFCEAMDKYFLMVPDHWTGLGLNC
# This is one part of the list.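 Rule for the calls: active = dose-dependent thermal stabilisation significant by F-test of dose-response against flat model at 10% FDR; inactive = not significant.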
# Compound: Nc1nc2c(ncn2[C@@H]2O[C@H](COP(=O)(O)OP(=O)(O)OP(=O)(O)O)[C@@H](O)[C@H]2O)c(=O)[nH]1
# Test: dose-dependent thermal stabilisation call (2D-TPP, DLPTP, 10% FDR) (binary (1 = stabilised)); higher = stabilised by the compound
# Settings: system: Jurkat gel-filtered lysate; concentration range 1-500 µM
row,Target,dose-dependent thermal stabilisation call
1,PPA1 (UniProt Q15181),inactive: 0
2,PHC3 (UniProt Q8NDX5),inactive: 0
3,POLR3G (UniProt O15318),inactive: 0
4,PLA2G4B (UniProt P0C869),inactive: 0
5,POLR2K (UniProt P53803),inactive: 0
6,PPM1E (UniProt Q8WY54),inactive: 0
7,PGM3 (UniProt O95394),inactive: 0
8,POLR3C (UniProt Q9BUI4),inactive: 0
9,PI4KB (UniProt Q9UBF8),inactive: 0
10,PEX19 (UniProt P40855),inactive: 0
11,PPM1G (UniProt O15355),inactive: 0
12,PPP6R3 (UniProt Q5H9R7),inactive: 0
13,POLK (UniProt Q9UBT6),inactive: 0
14,PDSS1 (UniProt Q5T2R2),inactive: 0
15,PLEKHA7 (UniProt Q6IQ23),inactive: 0
16,PPP2R3B (UniProt Q9Y5P8),inactive: 0
17,PFN2 (UniProt P35080),active: 1
18,POLD3 (UniProt Q15054),inactive: 0

row,Target,dose-dependent thermal stabilisation call
1,PPP2CA (UniProt P67775),inactive: 0
2,PDCD2L (UniProt Q9BRP1),active: 1
3,PPP4R2 (UniProt Q9NY27),inactive: 0
4,PHF14 (UniProt O94880),inactive: 0
5,POLR2E (UniProt P19388),inactive: 0
6,PDPR (UniProt Q8NCN5),active: 1
7,PLCG1 (UniProt P19174),active: 1
8,PPIF (UniProt P30405),inactive: 0
9,PPP2R5E (UniProt Q16537),active: 1
10,PLEC (UniProt Q15149),inactive: 0
11,POLE2 (UniProt P56282),inactive: 0
12,PDPK1 (UniProt O15530),active: 1
13,PIKFYVE (UniProt Q9Y2I7),inactive: 0
14,PPIL1 (UniProt Q9Y3C6),inactive: 0
15,PLEKHM2 (UniProt Q8IWE5),inactive: 0
16,PELP1 (UniProt Q8IZL8),inactive: 0
17,PIP4K2C (UniProt Q8TBX8),active: 1
18,PDCD2 (UniProt Q16342),active: 1

# Pulled one by one from the entries so far, 2 records:
row,Target,dose-dependent thermal stabilisation call
8,POLR3C (UniProt Q9BUI4),inactive: 0
13,PIKFYVE (UniProt Q9Y2I7),inactive: 0
